In article PMC10212922, “A blocking monoclonal antibody reveals dimerization of intracellular domains of ALK2 associated with genetic disorders” (Nature Communications, 2023):
Results are given in words; binding and its absence hold for the method and conditions named. In cells and extracts the contact can be indirect. Some entries that bind do so weakly or less than the wild type. One block for each molecule: values may come before it.

Sequences of proteins named here, by UniProt entry; tags and fusion partners are left off. Residues count along the entry.
UniProt Q13705, residues 19-512: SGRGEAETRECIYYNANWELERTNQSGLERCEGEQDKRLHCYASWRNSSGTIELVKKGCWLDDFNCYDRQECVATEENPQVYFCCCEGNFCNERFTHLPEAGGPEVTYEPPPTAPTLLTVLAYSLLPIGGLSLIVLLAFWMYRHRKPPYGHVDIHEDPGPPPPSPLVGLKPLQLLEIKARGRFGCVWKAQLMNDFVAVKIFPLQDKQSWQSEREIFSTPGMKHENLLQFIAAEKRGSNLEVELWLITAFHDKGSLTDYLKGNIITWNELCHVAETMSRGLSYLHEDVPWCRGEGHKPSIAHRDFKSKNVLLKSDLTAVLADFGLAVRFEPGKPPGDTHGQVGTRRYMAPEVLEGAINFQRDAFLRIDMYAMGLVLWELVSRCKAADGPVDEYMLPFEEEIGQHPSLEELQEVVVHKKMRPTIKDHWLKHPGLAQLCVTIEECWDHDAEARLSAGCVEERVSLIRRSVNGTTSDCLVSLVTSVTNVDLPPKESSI

Tests used:
[1] = target: ActR-IIB with LgBiT or SmBiT (NanoBiT) (UniProt Q13705); test: split reporter; ActR-IIB with LgBiT and with SmBiT in HEK293A cells; stimulated with BMP7 (Supplementary Fig. 5c)
[2] = target: ActR-IIB with LgBiT or SmBiT (NanoBiT) (UniProt Q13705); test: split reporter; ActR-IIB with LgBiT and with SmBiT in HEK293A cells; stimulated with activin A (Supplementary Fig. 5c)
[3] = target: ActR-IIB with LgBiT or SmBiT (NanoBiT) (UniProt Q13705); test: split reporter; ALK2 and ActR-IIB, one with LgBiT and one with SmBiT, in HEK293A cells; with BMP7 or activin A (Supplementary Fig. 5d)

- binding [2]: binds
Molecule: ActR-IIB with LgBiT or SmBiT (NanoBiT) (from UniProt Q13705 19-512) (receptor)
- binding [1]: no binding (condition: stimulated with BMP7)

- binding [3]: binds
B1: wild-type ALK2-LgBiT / ALK2-SmBiT (receptor, UniProt Q04771 21-509)
chain: MEDEKPKVNPKLYMCVCEGLSCGNEDHCEGQQCFSSLSINDGFHVYQKGCFQVYEQGKMTCKTPPSPGQAVECCQGDWCNRNITAQLPTKGKSFPGTQNFHLEVGLIILSVVFAVCLLACLLGVALRKFKRRNQERLNPRDVEYGTIEGLITTNVGDSTLADLLDHSCTSGSGSGLPFLVQRTVARQITLLECVGKGRYGEVWRGSWQGENVAVKIFSSRDEKSWFRETELYNTVMLRHENILGFIASDMTSRHSSTQLWLITHYHEMGSLYDYLQLTTLDTVSCLRIVLSIASGLAHLHIEIFGTQGKPAIAHRDLKSKNILVKKNGQCCIADLGLAVMHSQSTNQLDVGNNPRVGTKRYMAPEVLDETIQVDCFDSYKRVDIWAFGLVLWEVARRMVSNGIVEDYKPPFYDVVPNDPSFEDMRKVVCVDQQRPNIPNRWFSDPTLTSLAKLMKECWYQNPSARLTALRIKKTLTKIDNSLDKLKTDC
